Literature values in US20180214453A1, “RIVAROXABAN PHARMACEUTICAL COMPOSITIONS” (INTERQUIM, S.A., priority 2015, published 2018).
The name of at least one read-out is uncertain.

Conditions: BCS class II compound

For `O=C(NC[C@H]1CN(c2ccc(N3CCOCC3=O)cc2)C(=O)O1)c1ccc(Cl)s1` [Rivaroxaban, 5-chloro-N-({(5S)-2-oxo-3-[4-(3-oxomorpholin-4-yl)phenyl]-1,3-oxazolidin-5-yl}methyl)thiophene-2-carboxamide], the permeability is listed as “high permeability”.
